# Assay results from US7541467B2, “Fluorescent zinc ion sensor” (Sekisui Medical Co., Ltd., priority 2004, dated 2009).
# Experiment: Titration with zinc ions monitored by ultraviolet and visible absorption spectra
# Format: binding
# Procedure: TQEN was titrated with zinc ions, and changes of ultraviolet and visible absorption spectra were monitored.
# In the same manner as in Test Example 3, solution of 6OMeTQEN (concentration of 6OMeTQEN: 34 μM) in water-containing DMF (DMF:water=1:1) was titrated with zinc ions (0 to 68 μM), and changes in absorption were monitored by measuring ultraviolet and visible absorption spectra (FIG. 8).
compound,measurement,setting,value
"c1ccc2nc(CN(CCN(Cc3ccc4ccccc4n3)Cc3ccc4ccccc4n3)Cc3ccc4ccccc4n3)ccc2c1 [TQEN, N,N,N′,N′-tetrakis(2-quinolylmethyl)ethylenediamine]",equivalents of zinc ions at which changes of absorption stopped,"UV-visible absorption, isosbestic point",1 equivalent
same,"change of absorption spectra by former class of ions (sodium, potassium and the like)",competition experiment,no change
same,"change of absorption spectra by latter class of ions (copper, cobalt and the like)",competition experiment,same spectral changes as those induced by zinc
